Assay results as given in PMC9889812.
No constants are given. Whether binding was seen depends on the method and setting. Some results given as binding are weak or reduced against the parent protein; the word gives no strength.

Chains of the proteins cited; added tags and fusions are not shown. Lines headed by an entry give the natural chain unless they say otherwise; changes in a name come on top. Residues count along the entry.
UniProt Q15878: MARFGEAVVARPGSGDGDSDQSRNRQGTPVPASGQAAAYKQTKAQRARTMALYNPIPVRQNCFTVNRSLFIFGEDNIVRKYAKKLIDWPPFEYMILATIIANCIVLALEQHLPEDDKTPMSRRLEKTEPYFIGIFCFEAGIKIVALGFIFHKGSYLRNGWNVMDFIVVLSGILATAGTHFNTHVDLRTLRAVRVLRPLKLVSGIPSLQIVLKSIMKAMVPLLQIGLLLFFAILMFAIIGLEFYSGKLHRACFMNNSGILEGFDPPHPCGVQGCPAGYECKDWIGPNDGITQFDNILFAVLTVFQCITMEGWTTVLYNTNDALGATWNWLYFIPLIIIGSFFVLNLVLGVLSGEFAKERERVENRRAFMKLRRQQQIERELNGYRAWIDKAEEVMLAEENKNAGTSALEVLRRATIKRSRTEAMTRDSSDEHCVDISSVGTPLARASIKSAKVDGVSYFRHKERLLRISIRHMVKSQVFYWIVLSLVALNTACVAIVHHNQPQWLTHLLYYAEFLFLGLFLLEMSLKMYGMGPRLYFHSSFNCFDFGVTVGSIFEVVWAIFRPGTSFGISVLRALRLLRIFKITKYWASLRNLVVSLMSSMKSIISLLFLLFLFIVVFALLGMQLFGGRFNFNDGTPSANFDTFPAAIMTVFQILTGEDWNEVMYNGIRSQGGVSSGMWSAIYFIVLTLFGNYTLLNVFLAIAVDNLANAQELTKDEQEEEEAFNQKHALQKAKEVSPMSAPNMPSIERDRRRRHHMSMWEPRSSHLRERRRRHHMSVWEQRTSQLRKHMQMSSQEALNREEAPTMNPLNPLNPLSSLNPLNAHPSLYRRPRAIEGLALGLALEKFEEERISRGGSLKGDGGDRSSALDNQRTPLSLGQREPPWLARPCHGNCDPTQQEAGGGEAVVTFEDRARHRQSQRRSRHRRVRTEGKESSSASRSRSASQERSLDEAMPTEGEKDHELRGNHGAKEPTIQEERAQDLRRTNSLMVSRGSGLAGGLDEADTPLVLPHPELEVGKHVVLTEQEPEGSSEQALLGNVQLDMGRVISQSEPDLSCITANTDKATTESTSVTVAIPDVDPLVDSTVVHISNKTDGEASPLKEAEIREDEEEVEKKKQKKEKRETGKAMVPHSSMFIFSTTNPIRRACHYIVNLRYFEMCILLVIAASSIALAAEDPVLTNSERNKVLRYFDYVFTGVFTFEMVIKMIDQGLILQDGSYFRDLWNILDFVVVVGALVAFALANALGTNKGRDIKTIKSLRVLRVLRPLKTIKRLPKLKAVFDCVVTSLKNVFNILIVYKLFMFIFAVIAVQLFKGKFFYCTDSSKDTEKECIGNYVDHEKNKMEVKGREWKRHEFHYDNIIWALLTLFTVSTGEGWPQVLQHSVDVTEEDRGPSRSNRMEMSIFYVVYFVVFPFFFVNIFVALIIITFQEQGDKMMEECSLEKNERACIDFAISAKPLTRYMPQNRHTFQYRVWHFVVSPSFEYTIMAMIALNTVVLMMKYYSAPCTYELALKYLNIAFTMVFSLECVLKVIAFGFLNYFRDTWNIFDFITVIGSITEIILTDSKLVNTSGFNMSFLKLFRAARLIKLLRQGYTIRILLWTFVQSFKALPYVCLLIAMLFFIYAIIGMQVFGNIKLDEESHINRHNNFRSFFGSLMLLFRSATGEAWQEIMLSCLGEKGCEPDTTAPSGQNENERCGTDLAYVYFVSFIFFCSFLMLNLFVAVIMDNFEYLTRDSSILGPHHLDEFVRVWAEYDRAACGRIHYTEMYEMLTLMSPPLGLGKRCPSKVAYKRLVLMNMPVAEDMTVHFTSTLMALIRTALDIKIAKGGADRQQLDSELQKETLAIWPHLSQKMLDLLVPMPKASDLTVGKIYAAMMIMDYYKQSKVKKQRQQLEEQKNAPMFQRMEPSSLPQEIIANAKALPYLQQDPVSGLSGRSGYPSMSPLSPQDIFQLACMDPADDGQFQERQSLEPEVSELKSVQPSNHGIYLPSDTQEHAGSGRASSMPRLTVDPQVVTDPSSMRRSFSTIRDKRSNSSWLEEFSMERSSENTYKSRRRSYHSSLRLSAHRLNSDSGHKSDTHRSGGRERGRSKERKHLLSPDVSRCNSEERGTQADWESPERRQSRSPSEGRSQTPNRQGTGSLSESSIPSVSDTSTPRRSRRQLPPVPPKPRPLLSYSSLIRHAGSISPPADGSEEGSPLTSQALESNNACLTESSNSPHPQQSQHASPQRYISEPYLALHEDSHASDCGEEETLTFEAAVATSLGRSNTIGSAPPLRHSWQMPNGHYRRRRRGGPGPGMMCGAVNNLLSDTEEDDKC
UniProt P54289, residues 25-1103: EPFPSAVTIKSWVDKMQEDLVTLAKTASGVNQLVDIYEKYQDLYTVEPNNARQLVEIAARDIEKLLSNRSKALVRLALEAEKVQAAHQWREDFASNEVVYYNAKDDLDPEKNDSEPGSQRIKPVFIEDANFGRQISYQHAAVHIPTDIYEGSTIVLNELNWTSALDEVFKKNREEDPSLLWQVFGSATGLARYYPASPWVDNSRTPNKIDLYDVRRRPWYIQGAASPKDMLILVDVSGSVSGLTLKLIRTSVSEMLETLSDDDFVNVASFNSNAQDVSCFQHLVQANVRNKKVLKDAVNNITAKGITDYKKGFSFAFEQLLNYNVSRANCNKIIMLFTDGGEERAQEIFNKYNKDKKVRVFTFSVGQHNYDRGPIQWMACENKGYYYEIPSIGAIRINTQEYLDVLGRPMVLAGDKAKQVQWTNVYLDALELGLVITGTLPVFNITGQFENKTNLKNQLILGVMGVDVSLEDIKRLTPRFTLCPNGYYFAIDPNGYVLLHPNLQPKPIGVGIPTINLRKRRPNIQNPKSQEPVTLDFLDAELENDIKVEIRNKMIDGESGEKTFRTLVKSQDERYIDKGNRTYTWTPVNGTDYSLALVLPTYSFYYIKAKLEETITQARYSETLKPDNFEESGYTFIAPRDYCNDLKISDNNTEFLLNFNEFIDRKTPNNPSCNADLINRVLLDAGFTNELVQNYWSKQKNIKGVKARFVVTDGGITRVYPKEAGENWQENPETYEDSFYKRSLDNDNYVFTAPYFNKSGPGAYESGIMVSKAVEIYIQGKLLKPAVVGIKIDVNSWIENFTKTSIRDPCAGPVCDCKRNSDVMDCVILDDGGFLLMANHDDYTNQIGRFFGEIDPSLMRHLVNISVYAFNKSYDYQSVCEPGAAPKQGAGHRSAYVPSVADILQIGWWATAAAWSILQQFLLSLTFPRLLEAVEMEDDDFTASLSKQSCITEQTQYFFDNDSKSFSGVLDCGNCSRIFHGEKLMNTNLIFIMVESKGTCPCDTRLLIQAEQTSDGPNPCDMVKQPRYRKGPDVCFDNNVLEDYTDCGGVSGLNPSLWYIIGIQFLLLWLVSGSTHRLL

Molecular target: human CaV2.3 α1E subunit (CACNA1E) (human) (UniProt Q15878)
Assay: cryo-EM structure; CaV2.3-α2δ1-β1 complex co-expressed in HEK 293-F, solubilised in DDM/CHS, purified on Streptactin beads and by SEC in 20 mM HEPES pH 7.5, 150 mM NaCl, 5 mM β-ME, 0.01% GDN; 3.1 Å map; both purified

binding: binds
Substance: human α2δ1 subunit (CACNA2D1) (from UniProt P54289 25-1103)
